Experimental data: PubChem BioAssay AID1224829 (NIAID, 2016)

Test: 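Follow-up of TLR4-NF-kappaB regulators using six separate siRNAs for each gene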 (follow-up of hits)
Cell system: mouse RAW264.7 G9 macrophage reporter cells
Reagent: single siRNA against mouse genes, 100 nM
Time to read-out: 2 days of siRNA knock-down, then 40 min of LPS before fixing
Conditions: LPS (Salmonella minnesota R595) at 10 ng/ml
Measurement: 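Imaging of GFP-p65 after 40 min of LPS; nuclear over perinuclear ring intensity ratio, scaled to plate median and non-targeting control wells, given as z-score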
Direction: p65 translocation z-score and gene median z-score, per vendor: higher = more nuclear NF-kappaB p65 after LPS
Call rule: 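Active means the replicate-mean z-score lies beyond plus or minus 2, in either direction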
Meaning of the calls: active = changed p65 translocation (either direction); inactive = no clear change
Shown is one part, drawn at random, of about 3,800 reagents. 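Calls cover raised and lowered translocation; gene median uses one vendor's three siRNAs; qiagen siRNAs acted more weakly than ambion siRNAs.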 A number with no mark means an inactive call. Reagents against one gene are numbered here.

gene symbol | reagent no. | siRNA vendor or control pool | p65 translocation z-score, replicate mean | p65 translocation z-score, replicate 1 | p65 translocation z-score, replicate 2 | gene median z-score, per vendor
Irf2bpl | 1 | ambion single siRNA | 2.37 (active) | 2.32 | 2.42 | 1.25
Irf2bpl | 2 | ambion single siRNA | 2.32 (active) | 4.45 | 0.182 | 1.25
Irf2bpl | 3 | ambion single siRNA | -1.67 | -2.11 | -1.22 | 1.25
Irf2bpl | 4 | qiagen single siRNA | -0.93 | -2.38 | 0.518 | -0.533
Irf2bpl | 5 | qiagen single siRNA | 3.51 (active) | 2.86 | 4.15 | -0.533
Irf2bpl | 6 | qiagen single siRNA | -2.05 (active) | -1.58 | -2.51 | -0.533
Cadm1 | 1 | ambion single siRNA | -5.6 (active) | -6.5 | -4.7 | -4.7
Cadm1 | 2 | ambion single siRNA | -2.14 (active) | -1.83 | -2.44 | -4.7
Cadm1 | 3 | ambion single siRNA | -7.87 (active) | -7.87 | – | -4.7
Cadm1 | 4 | qiagen single siRNA | 3.53 (active) | 2.52 | 4.53 | 2.57
Cadm1 | 5 | qiagen single siRNA | 3.21 (active) | 2.62 | 3.79 | 2.57
Cadm1 | 6 | qiagen single siRNA | 0.806 | 0.235 | 1.38 | 2.57
R3hdm2 | 1 | ambion single siRNA | 4.62 (active) | 5.41 | 3.83 | -0.482
R3hdm2 | 2 | ambion single siRNA | -6.25 (active) | -6.68 | -5.81 | -0.482
R3hdm2 | 3 | ambion single siRNA | -0.482 | 0.203 | -1.17 | -0.482
R3hdm2 | 4 | qiagen single siRNA | -1.96 | -1.64 | -2.29 | -2.4
R3hdm2 | 5 | qiagen single siRNA | -5.32 (active) | -5.32 | – | -2.4
R3hdm2 | 6 | qiagen single siRNA | -2.52 (active) | -2.52 | – | -2.4
Eif4ebp1 | 1 | ambion single siRNA | -0.126 | 0.455 | -0.706 | -0.706
Eif4ebp1 | 2 | ambion single siRNA | -0.425 | 0.0884 | -0.939 | -0.706
Eif4ebp1 | 3 | ambion single siRNA | -2.01 (active) | -2.01 | – | -0.706
Eif4ebp1 | 4 | qiagen single siRNA | -0.539 | -1.51 | 0.427 | -1.17
Eif4ebp1 | 5 | qiagen single siRNA | 0.8 | -0.825 | 2.43 | -1.17
Eif4ebp1 | 6 | qiagen single siRNA | -3.93 (active) | -4.37 | -3.48 | -1.17

Continued; the last 2 above are carried over.
gene symbol | reagent no. | siRNA vendor or control pool | p65 translocation z-score, replicate mean | p65 translocation z-score, replicate 1 | p65 translocation z-score, replicate 2 | gene median z-score, per vendor
Eif4ebp1 | 5 | qiagen single siRNA | 0.8 | -0.825 | 2.43 | -1.17
Eif4ebp1 | 6 | qiagen single siRNA | -3.93 (active) | -4.37 | -3.48 | -1.17
Med25 | 1 | ambion single siRNA | -1.78 | -2.36 | -1.2 | -1.42
Med25 | 2 | ambion single siRNA | -1.18 | -1.11 | -1.25 | -1.42
Med25 | 3 | ambion single siRNA | -1.9 | -2.21 | -1.59 | -1.42
Med25 | 4 | qiagen single siRNA | -0.942 | -1.25 | -0.638 | 0.84
Med25 | 5 | qiagen single siRNA | 2.15 (active) | 0.84 | 3.46 | 0.84
Med25 | 6 | qiagen single siRNA | 1.5 | 1.5 | – | 0.84
Cntf | 1 | ambion single siRNA | -1.61 | -0.906 | -2.31 | -0.895
Cntf | 2 | ambion single siRNA | 0.0488 | 0.982 | -0.884 | -0.895
Cntf | 3 | ambion single siRNA | -1.57 | -0.452 | -2.7 | -0.895
Cntf | 4 | qiagen single siRNA | 1.83 | 1.29 | 2.37 | 0.671
Cntf | 5 | qiagen single siRNA | -0.155 | 0.643 | -0.952 | 0.671
Cntf | 6 | qiagen single siRNA | -0.473 | 0.699 | -1.64 | 0.671
